The other results are listed elsewhere or left out.

The chains behind the UniProt entries cited, without tags or fusion partners. Where a name states a change or a piece, a line headed by the entry shows the natural chain unless it says otherwise.
UniProt Q8ND25: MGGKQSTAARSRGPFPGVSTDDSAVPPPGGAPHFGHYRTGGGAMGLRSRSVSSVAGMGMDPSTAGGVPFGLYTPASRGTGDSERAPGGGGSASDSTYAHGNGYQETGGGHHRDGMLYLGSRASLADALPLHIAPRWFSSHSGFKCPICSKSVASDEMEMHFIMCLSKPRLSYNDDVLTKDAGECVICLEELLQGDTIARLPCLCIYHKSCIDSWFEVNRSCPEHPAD
UniProt Q8NHG8: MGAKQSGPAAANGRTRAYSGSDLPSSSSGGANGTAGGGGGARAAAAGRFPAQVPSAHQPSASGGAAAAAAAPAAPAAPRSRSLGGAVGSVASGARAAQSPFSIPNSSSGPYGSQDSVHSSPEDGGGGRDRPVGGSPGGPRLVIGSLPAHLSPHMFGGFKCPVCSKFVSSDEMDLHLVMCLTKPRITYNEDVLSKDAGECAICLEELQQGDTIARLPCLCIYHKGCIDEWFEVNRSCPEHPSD

In one assay the target is ZNRF1 isoform 2 (UniProt Q8ND25). Description: log2 fold change, soluble protein after heating vs DMSO (PISA); higher = thermal stabilisation; K562 cells, 10 uM, 30 min; active = over 0.2 and 3.5 SD of the protein, either way, in both replicates (recomputed). Summed up:
(§1)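 K562 cells at 2×10^6 cells/mL were given 10 μM compound for 30 min. Aliquots then went through 3 min of heating across 48°C-58°C, were pooled, and were extracted in PBS with 0.5% NP-40 at 4°C, and the supernatant after 21,000xg for 90 min was quantified by TMTpro 16plex LC-MS/MS with channel sums equalised. Thermal stability relative to control samples, from duplicates, is given as log2 fold change.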
Take `CN1CC[C@H](c2c(O)cc(O)c3c(=O)cc(-c4ccccc4Cl)oc23)[C@H](O)C1` [alvocidib]: the log2 fold change is inactive: -0.085.

For the compound `Cc1cc(SCc2sc(-c3ccc(C(F)(F)F)cc3)nc2C)ccc1OCC(=O)O`, the log2 fold change was inactive: -0.013. Turning to `CC[C@H](C)n1cc(C)c2c(C(=O)NCc3c(C)cc(C)[nH]c3=O)cc(-c3ccc(N4CCNCC4)nc3)cc21`, the log2 fold change was inactive: 0.103. `Cn1cc(-c2ccc3c(c2)CCN3C(=O)Cc2cccc(C(F)(F)F)c2)c2c(N)ncnc21`: the log2 fold change is inactive: 0.1. With `Cc1cc(Nc2cc(N3CCN(C)CC3)nc(Sc3ccc(NC(=O)C4CC4)cc3)n2)n[nH]1` [tozasertib], the log2 fold change was inactive: 0.16. In the case of `O=C(Nc1cccc(Nc2ncc(Br)c(NCCc3cnc[nH]3)n2)c1)N1CCCC1`, the log2 fold change is inactive: -0.048.

Take `C[C@H](Nc1ncnc2nc[nH]c12)c1cc2cccc(Cl)c2c(=O)n1-c1ccccc1` [duvelisib]: the log2 fold change is inactive: 0.073. On to `C[C@@H](N)c1ccc(C(=O)Nc2ccnc3[nH]ccc23)cc1`, for which the log2 fold change was inactive: 0.002.

Turning to `NC1(Cc2ccc(Cl)cc2)CCN(c2ncnc3[nH]ccc23)CC1`, the log2 fold change is inactive: -0.008. The same measure, in the same setting: under `CN1CCc2c(c3ccccc3n2Cc2ccc(C(=O)NO)cc2)C1` [Tubastatin A] stands inactive: -0.004; under `CC1=C(C(=O)Nc2cc3cn[nH]c3cc2F)C(c2ccc(C(F)(F)F)cc2)CC(=O)N1` (centres undefined), inactive: 0.127; under `Cc1nc(Nc2n[nH]c3c2CN(C(=O)N[C@H](CN(C)C)c2ccccc2)C3(C)C)c2sccc2n1`, inactive: 0.147. For the compound `CNC(=O)c1ccccc1Nc1nc(Nc2ccc(N3CCOCC3)cc2OC)ncc1Cl`, the log2 fold change is inactive: -0.054.

In the case of `Cc1nc(Nc2ncc(C(=O)Nc3c(C)cccc3Cl)s2)cc(N2CCN(CCO)CC2)n1` [dasatinib], the log2 fold change was inactive: -0.09.

Take `Cc1ccc2c(=O)c3ccccc3n(CCCN)c2c1C`: the log2 fold change was inactive: 0.053.

Turning to `CN1CCN(CCOc2cc(OC3CCOCC3)c3c(Nc4c(Cl)ccc5c4OCO5)ncnc3c2)CC1` [saracatinib], the log2 fold change was inactive: -0.022.

In the case of `Cc1cn(-c2cc(NC(=O)c3ccc(C)c(Nc4nccc(-c5cccnc5)n4)c3)cc(C(F)(F)F)c2)cn1` [nilotinib], the log2 fold change was inactive: 0.008.

On to `CNc1nc(-c2ccc3c(N)n[nH]c3c2)cc(N2C[C@@H](C(=O)NC3CCCCC3)CC[C@H]2C)n1`, for which the log2 fold change is inactive: -0.112. The same measure, in the same setting: to `Cc1ncc(-c2ccnc(Nc3ccc(S(C)(=O)=O)cc3)n2)n1C(C)C` belongs inactive: -0.007. As for `CO[C@H]1C[C@@H]2CC[C@@H](C)[C@@](O)(O2)C(=O)C(=O)N2CCCC[C@H]2C(=O)O[C@H]([C@H](C)C[C@@H]2CC[C@H](n3cnnn3)[C@H](OC)C2)CC(=O)[C@H](C)/C=C(\C)[C@@H](O)[C@@H](OC)C(=O)[C@H](C)C[C@H](C)/C=C/C=C/C=C/1C` [zotarolimus], the log2 fold change is inactive: -0.009. Turning to `Cn1c2cc(S(C)=O)sc2c2cnn(Cc3cccc(N)c3)c(=O)c21` (centres undefined), the log2 fold change was inactive: -0.049. Same read-out and setting: under `COc1cc2ncnc(Nc3ccc(F)c(Cl)c3)c2cc1OCCCN1CCOCC1` [gefitinib] stands inactive: -0.02; under `CC(C)c1cnn2c(NCc3ccccc3)cc(NCCCCCCN)nc12`, inactive: 0.018; under `NC(=O)c1ccc2nc(-c3ccc(Oc4ccc(Cl)cc4)cc3)[nH]c2c1`, inactive: 0.087.

In a further assay the target is ZNRF2 (UniProt Q8NHG8). Described as above. Summed up:
as §1
As to `CN1CC[C@H](c2c(O)cc(O)c3c(=O)cc(-c4ccccc4Cl)oc23)[C@H](O)C1` [alvocidib], the log2 fold change was inactive: -0.02.

Regarding `Cc1cc(SCc2sc(-c3ccc(C(F)(F)F)cc3)nc2C)ccc1OCC(=O)O`, the log2 fold change was inactive: 0.015. As for `O=C1NC(=O)C(c2cnc3ccccn23)=C1c1cn2c3c(cc(F)cc13)CN(C(=O)N1CCCCC1)CC2`, the log2 fold change is inactive: -0.162. `CC[C@H](C)n1cc(C)c2c(C(=O)NCc3c(C)cc(C)[nH]c3=O)cc(-c3ccc(N4CCNCC4)nc3)cc21`: the log2 fold change is inactive: 0.142. Consider `Cn1cc(-c2ccc3c(c2)CCN3C(=O)Cc2cccc(C(F)(F)F)c2)c2c(N)ncnc21`, for which the log2 fold change is inactive: 0.111.

Consider `Cc1cc(Nc2cc(N3CCN(C)CC3)nc(Sc3ccc(NC(=O)C4CC4)cc3)n2)n[nH]1` [tozasertib], for which the log2 fold change was inactive: 0.074. For the compound `CC(C)(O)CC(=O)NCCn1ccc2ncnc(Nc3ccc(Oc4cccc(C(F)(F)F)c4)c(Cl)c3)c21`, the log2 fold change was inactive: 0.116. On the same count and under the same terms, under `O=C(Nc1cccc(Nc2ncc(Br)c(NCCc3cnc[nH]3)n2)c1)N1CCCC1` stands inactive: -0.213; under `C[C@H](Nc1ncnc2nc[nH]c12)c1cc2cccc(Cl)c2c(=O)n1-c1ccccc1` [duvelisib], inactive: 0.086.

For the compound `C[C@@H](N)c1ccc(C(=O)Nc2ccnc3[nH]ccc23)cc1`, the log2 fold change was inactive: -0.001. For `NC1(Cc2ccc(Cl)cc2)CCN(c2ncnc3[nH]ccc23)CC1`, the log2 fold change is inactive: -0.028. Consider `CC[C@H](C)[C@H](NC(=O)[C@H]([C@@H](C)CC)N(C)C(C)=O)C(=O)N[C@H](C(=O)N[C@@H](CC(C)C)C(=O)[C@@]1(C)CO1)[C@@H](C)O` [epoxomicin], for which the log2 fold change was inactive: -0.03. As to `Fc1ccc(Cl)cc1-c1nc(Nc2ccncc2)c2nccnc2n1`, the log2 fold change is inactive: 0.018. On to `CN1CCc2c(c3ccccc3n2Cc2ccc(C(=O)NO)cc2)C1` [Tubastatin A], for which the log2 fold change was inactive: 0.018.

For the compound `CC1=C(C(=O)Nc2cc3cn[nH]c3cc2F)C(c2ccc(C(F)(F)F)cc2)CC(=O)N1` (centres undefined), the log2 fold change is inactive: -0.047. `Cc1nc(Nc2n[nH]c3c2CN(C(=O)N[C@H](CN(C)C)c2ccccc2)C3(C)C)c2sccc2n1`: the log2 fold change was inactive: 0.168. Same read-out and setting: to `CNC(=O)c1ccccc1Nc1nc(Nc2ccc(N3CCOCC3)cc2OC)ncc1Cl` belongs inactive: 0.007; to `CCCCN(Cc1ccc(C(=O)NO)cc1)C(=O)Nc1ccccc1` [Nexturastat A], inactive: 0.108. The same measure, in the same setting: under `Cc1nc(Nc2ncc(C(=O)Nc3c(C)cccc3Cl)s2)cc(N2CCN(CCO)CC2)n1` [dasatinib] stands inactive: -0.035; under `Cc1ccc2c(=O)c3ccccc3n(CCCN)c2c1C`, inactive: 0.011. Take `CN1CCN(CCOc2cc(OC3CCOCC3)c3c(Nc4c(Cl)ccc5c4OCO5)ncnc3c2)CC1` [saracatinib]: the log2 fold change is inactive: 0.051. Regarding `C[C@@H]1COCCN1c1cc(C2(S(C)(=O)=O)CC2)nc(-c2cccc3[nH]ccc23)n1`, the log2 fold change was inactive: -0.012.

Turning to `Cc1cn(-c2cc(NC(=O)c3ccc(C)c(Nc4nccc(-c5cccnc5)n4)c3)cc(C(F)(F)F)c2)cn1` [nilotinib], the log2 fold change was inactive: 0.072. Regarding `CNc1nc(-c2ccc3c(N)n[nH]c3c2)cc(N2C[C@@H](C(=O)NC3CCCCC3)CC[C@H]2C)n1`, the log2 fold change is inactive: -0.02. In the case of `Cc1ncc(-c2ccnc(Nc3ccc(S(C)(=O)=O)cc3)n2)n1C(C)C`, the log2 fold change was inactive: 0.074. With `CO[C@H]1C[C@@H]2CC[C@@H](C)[C@@](O)(O2)C(=O)C(=O)N2CCCC[C@H]2C(=O)O[C@H]([C@H](C)C[C@@H]2CC[C@H](n3cnnn3)[C@H](OC)C2)CC(=O)[C@H](C)/C=C(\C)[C@@H](O)[C@@H](OC)C(=O)[C@H](C)C[C@H](C)/C=C/C=C/C=C/1C` [zotarolimus], the log2 fold change was inactive: -0.055.

On to `Cn1c2cc(S(C)=O)sc2c2cnn(Cc3cccc(N)c3)c(=O)c21` (centres undefined), for which the log2 fold change is inactive: -0.062. The same measure, in the same setting: to `COc1cc2ncnc(Nc3ccc(F)c(Cl)c3)c2cc1OCCCN1CCOCC1` [gefitinib] belongs inactive: -0.028; to `CC(C)c1cnn2c(NCc3ccccc3)cc(NCCCCCCN)nc12`, inactive: -0.115; to `NC(=O)c1ccc2nc(-c3ccc(Oc4ccc(Cl)cc4)cc3)[nH]c2c1`, inactive: 0.029.

The values are drawn from the supplement of paper PMC10849652.
